Assay results reported in PubChem BioAssay AID540276 (National Center for Advancing Translational Sciences (NCATS), 2011).
About 5,400 (1.8%) of roughly 300,000 compounds were called active. Inconclusive means that the source gave no clear call. Such entries were picked first, then a sample of the others. Calls come from the whole dose curve; tested in HEK293 cells. Potencies of inconclusive entries are doubtful fits and often do not repeat.

Test: qHTS for inhibitors of binding or entry into cells for Marburg Virus
Conditions: Marburg virus pseudotyped entry inhibition, cell reporter; series mostly up to 37.8 µM
Potency is the fitted concentration of half-maximal effect.

| SMILES | Potency |
| --- | --- |
| COc1cccc(OC)c1OCCOc1ccc(C(=O)c2ccccc2)cc1 | inconclusive: 25.1 µM [inhibitor, partial curve, poor fit] |
| Cc1ccccc1NC(=O)C(=Cc1ccc(C(=O)O)cc1)C(=O)Nc1ccccc1C | inconclusive: 1.58 µM [inhibitor, full curve, poor fit] |
| Cc1cccc(N2C(=O)SC(N(C)c3ccccc3)C2=O)c1 (stereo not drawn) | inconclusive: 7.08 µM [activator, partial curve, poor fit] |
| Cc1ccc(CC(NC(=O)c2ccccc2)C(=O)N2CCCC2C(=O)O)cc1 (stereo not drawn) | inactive |
| Oc1ccc2ccccc2c1/C=C/c1ccc2c(Br)cc(Br)c(O)c2n1 | inconclusive: 35.5 µM [inhibitor, single point] |
| CCCOc1ccc(C2=CSC3=NCCN23)cc1[N+](=O)[O-] | inconclusive: 35.5 µM [inhibitor, single point] |
| CN=c1sc(C(=O)Nc2cccc(Cl)c2)cc(=O)n1C | inconclusive: 29.1 µM [inhibitor, single point] |
| OCCNCc1cc(Br)ccc1OCc1ccc(Cl)cc1Cl | active: 11.2 µM |
| N#Cc1c(C(F)(F)F)cc(-c2cccs2)nc1SCc1ccccc1F | inactive |
| Fc1cccc(Nc2cc(-n3cccn3)ncn2)c1 | inactive |
| O=C(NCc1ccc(F)cc1)C1CCN(C(=O)Nc2ccc(F)cc2)CC1 | inconclusive: 0.891 µM [inhibitor, full curve, poor fit] |
| CCOc1ccc(-c2cc(C(=O)O)c3ccccc3n2)c(OCC)c1 | inconclusive: 5.17 µM [inhibitor, full curve, poor fit] |
| O=C(NCCCCCCCN1CCCCCCC1)C(C1CCCCC1)C1CCCCC1 | inconclusive: 10 µM [inhibitor, partial curve, poor fit] |
| Cc1cccc(NCCC(=O)c2ccc(Br)cc2)c1 | inactive |
| COc1ccc(CN2CCN(Cc3ccc4cc(F)ccc4n3)CC2CCO)c(C)c1C (stereo not drawn) | inconclusive: 8.91 µM [inhibitor, partial curve, poor fit] |
| C/C(=N\NC(=O)c1cc(C)oc1C)c1ccc2ccccc2c1 | inconclusive: 12.6 µM [inhibitor, single point] |
| CC(/C=N/NC(=O)Cn1cnc2c1c(=O)n(C)c(=O)n2C)=C\c1ccccc1 | inconclusive: 3.16 µM [inhibitor, partial curve, poor fit] |
| Cc1ccc(NC(=O)Cn2c(=O)n(CCCCC(=O)NCc3ccc4c(c3)OCO4)c(=O)c3ccccc32)cc1 | inactive |
| CN(CC(=O)NCCc1ccc(S(N)(=O)=O)cc1)Cc1ccc(Cl)cc1Cl | inconclusive: 11.2 µM [inhibitor, partial curve] |
| COC(=O)c1[nH]c2ccccc2c1NC(=O)CN1CCC(C(N)=O)(N2CCCCC2)CC1 | inconclusive: 0.708 µM [inhibitor, full curve, poor fit] |
| CC1CCc2c(sc3nc(CN4CCOCC4)nc(N4CCc5ccccc5C4)c23)C1 (stereo not drawn) | inconclusive: 35.5 µM [inhibitor, single point] |
| CC(NCc1ccccc1OC1CCCC1)c1ccccc1 (stereo not drawn) | active: 7.94 µM |
| CCOC(=O)c1ccccc1NC(=O)c1cccc([N+](=O)[O-])c1 | inconclusive: 0.794 µM [inhibitor, full curve, poor fit] |

| SMILES | Potency |
| --- | --- |
| COc1ccc(C(=O)Nc2nnc(Cc3ccc(OC)c(OC)c3)s2)c(OC)c1 | inconclusive: 1.41 µM [activator, partial curve, poor fit] |
| CC1CCCC(C)N1CCCNC(=O)C1CCCN(c2ncnc3c2nc2n3CCCCC2)C1 (stereo not drawn) | inconclusive: 17.8 µM [inhibitor, partial curve, poor fit] |
| COC1CCCCC1Nc1ccc(C)c(C)c1 (stereo not drawn) | inactive |
| O=S(=O)(O)c1nc2ccccc2n1CCOc1ccccc1 | inactive |
| COc1ccc(S(=O)(=O)Nc2cccc(C(C)=O)c2)cc1Br | inactive |
| O=C1C2C=CC=CC2=NC(=S)N1CCN1CCC(=C(c2ccc(F)cc2)c2ccc(F)cc2)CC1 (stereo not drawn) | inconclusive: 4.47 µM [inhibitor, partial curve] |
| CCOc1ccc(-n2nc(CO)c(C(=O)NCC(C)O)n2)cc1 (stereo not drawn) | inactive |
| COCCNc1c(-c2ccc(OC)cc2)nc2ccc(Cl)cn12 | inconclusive: 7.94 µM [inhibitor, partial curve, poor fit] |
| CC(C)n1nnnc1SCC(=O)Nc1ccc2c(c1)OCO2 | inconclusive: 2.06 µM [activator, partial curve, poor fit] |
| Cc1ccc(NC(=O)CN(C)CC(=O)Nc2ccccc2Oc2ccccc2)cc1 | inactive |
| O=C(NCCCN1CCOCC1)c1ccccc1-c1ccccc1 | inconclusive: 2.82 µM [activator, full curve, poor fit] |
| Cc1ccc(-c2nc(CS(=O)CC(=O)NCCc3ccc(Cl)cc3)c(C)o2)cc1 (stereo not drawn) | inactive |
| CC(=NCCO)c1c(O)n(C)c(=O)n(C)c1=O | inconclusive: 18.3 µM [activator, partial curve, poor fit] |
| Cn1c(SCC(=O)Nc2ccc3c(c2)OCCO3)nnc1-c1ccncc1 | inconclusive: 3.55 µM [inhibitor, single point] |
| COc1ccc(C(=O)NC(=S)NCc2ccccc2)cc1OC | inconclusive: 35.5 µM [inhibitor, single point] |
| CCCn1c(=O)c2ccccc2n2c(SCc3cc(=O)n4ccsc4n3)nnc12 | inactive |
| COc1ccc(CN2CCSCC2)c(C)c1C | inactive |
| CCN(CC)C1Oc2cc3c(cc2C(c2cccc(OC)c2O)C1C)OCO3 (stereo not drawn) | inactive |
| Cc1ccc(NS(=O)(=O)c2cccc(C(=O)NCC(c3ccc(F)cc3)N3CCOCC3)c2)cc1 (stereo not drawn) | inconclusive: 25.1 µM [inhibitor, single point] |
| Cc1ccc(-c2cn3cccnc3n2)cc1 | inactive |
| O=C(Cc1ccccc1)Nc1ccc(N2CCOCC2)cc1 | inconclusive: 11.2 µM [activator, partial curve, poor fit] |
| Cc1ccnc(NC(=O)c2cccc(OC(F)F)c2)n1 | inconclusive: 11.2 µM [activator, partial curve] |
| CC(C)(C)C(=O)Nc1cccc(-c2nnc(-c3cccc(NC(=O)C(C)(C)C)c3)o2)c1 | inconclusive: 7.08 µM [inhibitor, full curve, poor fit] |

| SMILES | Potency |
| --- | --- |
| O=C(NCCc1ccccc1)c1cnc2ccccn2c1=O | inconclusive: 32.6 µM [inhibitor, single point] |
| CCn1c(/C=C/c2ccccc2F)nc2ccccc2c1=O | inactive |
| Cn1c(O)c(/C=N/N2CCCCC2)c(=O)[nH]c1=O | inconclusive: 0.891 µM [inhibitor, partial curve] |
| CCOC(=O)C1(Cc2cccc(OC)c2)CCN(Cc2csc(C(C)=O)c2)CC1 | inconclusive: 20.6 µM [inhibitor, single point] |
| CCOC(=O)C1CCN(Cc2cnc(NC(=O)OC)s2)CC1 | inactive |
| Cc1ccc(S(=O)(=O)c2c(C)nn(C(C)(C)C)c2OC(=O)C(C)(C)C)cc1 | inconclusive: 15.8 µM [inhibitor, single point] |
| NS(=O)(=O)c1ccc(CCNC(=O)c2ccc(OCC3CCCO3)cc2)cc1 (stereo not drawn) | inactive |
| Cc1cccc(C(=O)OCC(=O)c2c(N)n(CC(C)C)c(=O)n(C)c2=O)c1O | inconclusive: 35.5 µM [inhibitor, single point] |
| CC(=O)c1cccc(CN2CCCC(C(=O)c3ccc4c(c3)OCO4)C2)c1 (stereo not drawn) | inconclusive: 11.2 µM [inhibitor, partial curve, poor fit] |
| Cc1cc(=O)oc2cc(OCC(=O)Nc3c(Cl)cccc3C(F)(F)F)ccc12 | inconclusive: 3.16 µM [inhibitor, full curve, poor fit] |
| CSc1ccccc1-c1nc(-c2ccncc2)no1 | inconclusive: 1.78 µM [activator, partial curve, poor fit] |
| COc1ccc(S(=O)(=O)N[C@@H](C)C(=O)OCC(=O)Nc2cc3oc4ccccc4c3cc2OC)cc1 | inconclusive: 7.08 µM [activator, partial curve] |
| c1ccc(-c2csc(Nc3ccc4c(c3)OCCO4)n2)cc1 | inconclusive: 1.26 µM [activator, single point] |
| Cc1ccc2oc(-c3ccc(C)c(NC(=O)c4ccc(-c5ccccc5[N+](=O)[O-])o4)c3)nc2c1 | inconclusive: 31.6 µM [activator, single point] |
| Cc1ccc(C(=O)NCC(=O)Nc2ccc(Cl)cc2)s1 | inactive |
| COCC(=O)Nc1c(C(=O)Nc2ccc(C)cc2)oc2ccccc12 | inconclusive: 3.55 µM [activator, partial curve, poor fit] |
| Cc1cccc(CC2S/C(=N/c3cccc(C)n3)NC2=O)c1 (stereo not drawn) | inconclusive: 0.562 µM [inhibitor, full curve, poor fit] |
| COC(=O)c1ccc2nc(C)cc(Nc3cccc(Cl)c3C)c2c1 | inconclusive: 15.8 µM [inhibitor, single point] |
| CCN(CC)S(=O)(=O)c1cc(NC(=O)C(C)N2CCN(Cc3ccc4c(c3)OCO4)CC2)ccc1C (stereo not drawn) | inconclusive: 29.1 µM [inhibitor, partial curve, poor fit] |
| Cc1occc1C(=O)Nc1ccc(Br)cc1F | inactive |
| CCCC(OC(=O)CN1C(=O)COc2ccccc21)C(=O)NC1CCCC1 (stereo not drawn) | inconclusive: 7.3 µM [inhibitor, partial curve, poor fit] |
| O=C(NNC(=O)C1CC(=O)N(Cc2ccccc2)C1)c1ccc(F)cc1 (stereo not drawn) | inconclusive: 1.12 µM [inhibitor, partial curve] |

Taken from the results shown, 2 compounds:

| SMILES | Potency |
| --- | --- |
| CCN(CC)C1Oc2cc3c(cc2C(c2cccc(OC)c2O)C1C)OCO3 (stereo not drawn) | inactive |
| Cc1ccc(NS(=O)(=O)c2cccc(C(=O)NCC(c3ccc(F)cc3)N3CCOCC3)c2)cc1 (stereo not drawn) | inconclusive: 25.1 µM [inhibitor, single point] |

Grouped by structure: those above with a nitro group on carbon (3)

| SMILES | Potency |
| --- | --- |
| CCCOc1ccc(C2=CSC3=NCCN23)cc1[N+](=O)[O-] | inconclusive: 35.5 µM [inhibitor, single point] |
| CCOC(=O)c1ccccc1NC(=O)c1cccc([N+](=O)[O-])c1 | inconclusive: 0.794 µM [inhibitor, full curve, poor fit] |
| Cc1ccc2oc(-c3ccc(C)c(NC(=O)c4ccc(-c5ccccc5[N+](=O)[O-])o4)c3)nc2c1 | inconclusive: 31.6 µM [activator, single point] |
